Measured values as given in US11168052B2, “Carbamate derivative compounds, processes for preparing them and their uses” (BIO-PHARM SOLUTIONS CO., LTD., priority 2016, dated 2021).

Key:
[1] = system: PTZ (Pentylenetetrazol)-induced clonic seizure in rats; assay: Anti-epilepsy activity, scPTZ test in rats; type: in vivo, SD rats
From the text: (§1) In this experiment, each test compound sample was formulated as described in Biological Experimental Example 1, and administered intraperitoneally to the test animals (mice; ICR or Rat; SD); Experimental animals, male ICR mice and male SD rats, were purchased from OrientBio or Nara biotech, Korea, and housed 4-5 mice per a cage for 4-5 days. The range of mice body weight was used between 19 and 26 grams and range of rats body weight was used between 100 and 130 grams. After Peak time (0.5, 1, 2 and 4 hr) from the administration, PTZ (Pentylenetetrazol) was administered subcutaneously in the concentration capable of inducing 97% intermittent convulsions (mice: 100-110 mg/kg?bw, 10 μl/g, or rats: 90-110 mg/kg?bw, 2 μl/g). If clonic seizure was not observed for at least 30 minutes in the PTZ administered animal, it can be considered that the test compound has anti-epilepsy activity. The median effective dose (ED50) is determined using 6 animals per a concentration (total three different concentrations), and calculated by Litchfield and Wicoxon log-probit method which is a dose-response relationship.

[2] = system: PTZ (Pentylenetetrazol)-induced clonic seizure in mice; assay: Anti-epilepsy activity, scPTZ test in mouse; type: in vivo, ICR mice
From the text: as §1

[3] = system: Lithium-pilocarpine induced seizure in rats; assay: Lithium-pilocarpine induced epilepsy test (LI-PILO), prevention test; type: in vivo, Sprague-Dawley rats; settings: i.p.
Protocol: Male Sprague-Dawley rats (purchased from Orient Bio Inc. Korea) of body weight 175 grams were used for these studies and 3 rats per cage were housed for 4-5 days. On the day prior to SE, rats received 127 mg/kg lithium chloride (Sigma, St. Louis, Mo., U.S.A.) intraperitoneally (i.p.). Approximately 18-20 h following this treatment, rats were given an i.p. injection of the concentration capable of inducing 97% intermittent convulsions pilocarpine(Sigma, 30-43 mg/kg). An i.p. injection of 2 mg/kg methyl-scopolamine (Sigma) was administered 30 min prior to pilocarpine to block the effects of the muscarinic agonist on peripheral cholinergic receptors. Test drugs were dissolved in 20% tween80 (Sigma).
The drugs were administered intraperitoneally (i.p.) in a volume of 2 μl/g body weight. Pharmacological effects of all of the test materials were evaluated to compare test groups (n=6) with a control group (n=6). Control group was administered vehicle only. The efficacy was measured 0.5, 1, 2, or 4 hours after the administration of the test material. The time point that the most animals were protected was defined as peak time and the ED50 was determined at peak time. The animals were then transferred to observation cages and observed continuously for 90 min Seizure was elicited in approximately 95% of the control group. Protection was defined as complete absence of seizure grade 3-5 (Racine scale; Racine, 1972) over the 90-min observation period. The effective dose of the compound necessary to protect 50% of the animals against seizures compared to controls (i.e., ED50) was determined by a curve fitting program (Excel 2007, Microsoft).

[4] = system: Picrotoxin (PIC)-induced clonic seizure in mice; assay: Chemical induced seizure model (PIC); type: in vivo, ICR mice
Protocol: Picrotoxin (PIC) were used to induce the behavioral seizures in the experiments. Male ICR mice (purchased from Orient Bio Inc. Korea) of body weight 19-26 g (mice) were used for these studies. The test materials were administered intraperitoneal (ip) route in a volume of 10 ul/g (mice) weight in rats or mice, respectively. Pharmacological effects of the test materials were evaluated to compared test groups (n=6) with a control group (n=6). Control group was administrated vehicle, only. The peak time was determined by administration of test material's random dose for 0.5, 1, 2, 4 hour. The time that the most protect was defined as a peak time and ED50 was determined by other dose administration at the peak time. Chemical (PIC) was dissolved in 0.9% saline and administered subcutaneously (s.c.) at its CD97 (convulsive dose 97%), the dose of Chemical (PIC) that produced clonic seizures in 97% into a loose fold of skin in the midline of the neck in a volume of 10 ul/g (mice) body weight. The animals were then transferred to observation cages and observed continuously for 45 min. Clonic seizure was elicited in approximately 97% of control group. Protection was defined as a complete absence of clonic seizure over the 45-min observation period. The effective dose of compound necessary to protect against generalized convulsive seizures to 50% of controls (i.e., ED50) was determined by log probit analysis using SPSS software program (SPSS Inc.). (Reference; White H. S., J. H. Woodhead, K. S. Wilcox, J. P. Stables, H. J. Kupferberg, and H. H. Wolf. General Principles; Discovery and Preclinical Development of Antiepileptic Drugs. In: R. H. Levy, R. H. Mattson, B. S. Meldrum, and E. Perucca, eds. Antiepileptic Drugs, 5th Ed. Lippincott Williams & Wilkins, Philadelphia 2002: pp. 36-48.) The obtained results are shown in following Table 10.

[5] = system: CFA-induced pain model in rats; assay: Antiallodynic activity on Complete Freund's Adjuvant (CFA)-induced inflammatory pain model; type: in vivo, Sprague-Dawley rats; settings: intraperitoneally
Protocol: Male, Sprague-Dawley rats (210-250 g, Nara Bio, Korea) were habituated for 1 week before surgery and allowed free access to food and water throughout the experimentation. Room temperature and humidity were maintained at 24±2 and 50±10%, respectively.
CFA-induced inflammatory pain was induced by the procedure of Nagakura et al. (2003) and Gregory P. et al. (2010) with minor modifications. CFA (sigma, USA) was injected in the right plantar with a 100 ul volume under gaseous anesthesia with isoflurane. Sham controls were injected with 100 ul of saline, and preparation of the vehicle controls were identical to the group treated with compound, except for administration of vehicles without indentical to the vihecle control group.
Tactile sensitivity (Mechanical allodynia) was evaluated using von Frey monofilaments before and after treatment, and animals were include in the study only if the withdrawal threshold value was less than 4 g. One week after CFA injection, CFA-infused animals, sham-operated animal, and vehicle-operated animals were tested for tactile sensitivity with von Frey monofilaments, with 3 trials for each animal. All Animals were placed in a stainless steel mashe chamber and habituated for 30 min in the test cage. The tactile sensitivity for ipsilateral hind paw was measured using the up-and-down method (Dixon, 1980) with seven von Frey monofilaments (0.4, 1, 2, 4, 6, 8, and 15 g) to 3 trials. The tactile sensitivity test was followed by Dixon's method (Dixon, 1980). The 50% paw withdrawal threshold for each paw was calculated using the following formula: [Xth]log=[vFr]log+ky where [vFr] is the force of the last von Frey used, k=0.2249 which is the average interval (in log units) between the von Frey monofilaments, and y is a value that depends upon the pattern of withdrawal responses (Dixon, 1980).
Antiallodynic effect of compounds was evaluated at the dose of 50 mg/kg (n=4-6), intraperitoneally administrated in a volume of 5 ul/g bw in a vehicle of 30% (v/v) PEG or 20% (v/v) Tween 80. The test was performed peak time of efficacy (0.5 hr) after compound administration.
The relative values compared to the sham (% control) were calculated and shown in Table 5, which show an antiallodynic effect of Compound 1 on CFA-induced pain model in rats.

[6] = system: MES (electroshock) seizure in rats; assay: Anti-epilepsy activity, MES test in rats; type: in vivo, SD rats
Protocol: (§2) In the MES test (Ref., G. Villetti et al. Neuropharmacology 40(2001) 866-878), an electrical stimulus (mice: 50 mA, 60 Hz, 0.2 sec, and rats: 150 mA, 60 Hz, 0.2 sec in the test animal) supplied by an 11A Shocker (IITC Life Science Company) was delivered through corneal electrodes. All mice or rats assigned to any electroshock at peak time were treated with each test compound sample which was dissolved in 20% tween 80 prepared by saline solvent applied orally before the test. […] Three doses of the test sample were administered orally to 9-18 animals (3-6 mice per dose) for evaluating the respective doses at which 50% of the animals were protected from seizure (ED50). The ED50 value (median effective dose) was calculated by Litchfield and Wicoxon log-probit method which is a dose-response relationship. Experimental animals, male ICR mice and male SD rats, were purchased from OrientBio, Samtako, or Nara Biotech, Korea, and housed in cages (4-5 mice or 3 rats per cage) for 4-5 days. The range of mice body weight was between 19 and 25 grams and range of rats body weight was between 100 and 130 grams.

[7] = system: MES (electroshock) seizure in mice; assay: Anti-epilepsy activity, MES test in mouse; type: in vivo, ICR mice
Protocol: as §2

[8] = system: ICR mice on hot plate; assay: Hot-plate test; type: in vivo; settings: orally
Protocol: To examine the pain relief effect of the carbamate compounds, a hot-plate test was conducted in referring to Current Protocols in Neuroscience; Behavioral Neuroscience Unit 8.9.
ICR mice (male, 25-28 g; Orient Bio, Korea) were habituated before test (in test room) for 1 hour. Animals were fasted 2 hr before administration of compounds. Compounds were orally administered at the three dose, 10 ul/g, by bodyweight (n=4-6/group). All compounds were dissolved in a vehicle of 30% (v/v) PEG 400 or 20% (v/v) Tween 80. The control group was treated the vehicle without compounds.
0.25-2.0 hr after the administration of compounds, the mice were put on a hot plate pre-heated to 55±1 (Hu, X. et al, 2008), and then, the withdrawal latency time was measured (cut-off time: 30 sec) until the point when each mouse was taking a paw off from the plate, shaking, licking a paw or hind leg, or jumping from the plate.

[9] = system: corneally kindled rats; assay: Corneal kindling (CK) rat model; type: in vivo, Sprague-Dawley rats; settings: p.o.
From the text: Male Sprague-Dawley rats (purchased from Orient Bio Inc. Korea) of body weight 85-100 g were used for these studies. The MES test using the electroshock seizure apparatus designed by Rodent Shocker Type221 (Hugo Sachs Elektronik, Germany). The kindled rat models were electrically stimulated (8 mA, 60 Hz, 2 s, corneal electrodes) twice daily for 21 days until stage 5 seizure scored by Racine's scale (Racine, 1972) were evoked. The kindled rats were fasted and adapted to test condition, for at least 1 hour before the administration of test material. The drugs were administered orally (p.o.) in a volume of 4 μl/g body weight. The corneally kindled rat model test is a model for generalized […] seizures or bipolar disorder and identifies the compound which prevents seizure or bipolar disorder spread. The shock level was set at 8 mA, 60 Hz and the duration was set at 2 s. A drop of 0.9% saline was placed in each eye, the electrodes were placed over the eyes, and the shock was administered immediately. Pharmacological effects of the test materials were evaluated to compare the test groups (n=6) with a control group (n=6). Control group was administrated vehicle, only. The peak time was determined by administration test material's random dose for 0.5, 1, 2, 4 hour. The time that the most protect was defined peak time and ED50 was determined by other dose administration at peak time. […]

For `NC(=O)O[C@H]1CCc2cccc(Cl)c2[C@H]1O` [Example 2, (1R, 2S)-8-chloro-1-hydroxy-1,2,3,4-tetrahydronaphthalen-2-yl carbamate], the “scPTZ test (ip) peak time” value [1] was 1 h, the “PTZ test (ip) Peak time” value [2] was 0.5 h and the “Lithium pilocarpine model (pre) peak time” value [3] was 1 h. The “PIC(ip) Peak Time” value [4] was 1 h, the “CFA model Peak Time” value [5] was 0.5 h and the “MES test (po) Peak time” value [6] was 0.5 h. For the same compound, the “MES test (po) Peak time” value [7] was 0.5 h.
With `NC(=O)O[C@H]1Cc2cccc(Cl)c2[C@H]1O` [Example 52, (1R, 2S)-7-chloro-1-hydroxy-2,3-dihydro-1H-inden-2-yl carbamate] the “Hot-plate test Peak Time” value [8] was 0.5 h, the “Lithium pilocarpine model (pre) peak time” value [3] was 0.5 h and the “CFA model Peak Time” value [5] was 0.5 h. For the same compound, the “MES test (po) Peak time” value [6] was 2 h and the “MES test (po) Peak time” value [7] was 0.5 h.
With `NC(=O)O[C@@H]1Cc2cc(Cl)cc(Cl)c2[C@@H]1O` [Example 59, (1S, 2R)-5,7-dichloro-1-hydroxy-2,3-dihydro-1H-inden-2-yl carbamate] the “CK Peak Time” value [9] was 4 h and the “MES test (po) Peak time” value [7] was 2 h.
